Literature values in patent US7595395B2, “Gabaergic agents to treat memory deficits” (priority 2005, dated 2009).

By UniProt entry, the sequences of proteins in these tests, tags left out. Residues count along the entry.
UniProt P18507, 40-475: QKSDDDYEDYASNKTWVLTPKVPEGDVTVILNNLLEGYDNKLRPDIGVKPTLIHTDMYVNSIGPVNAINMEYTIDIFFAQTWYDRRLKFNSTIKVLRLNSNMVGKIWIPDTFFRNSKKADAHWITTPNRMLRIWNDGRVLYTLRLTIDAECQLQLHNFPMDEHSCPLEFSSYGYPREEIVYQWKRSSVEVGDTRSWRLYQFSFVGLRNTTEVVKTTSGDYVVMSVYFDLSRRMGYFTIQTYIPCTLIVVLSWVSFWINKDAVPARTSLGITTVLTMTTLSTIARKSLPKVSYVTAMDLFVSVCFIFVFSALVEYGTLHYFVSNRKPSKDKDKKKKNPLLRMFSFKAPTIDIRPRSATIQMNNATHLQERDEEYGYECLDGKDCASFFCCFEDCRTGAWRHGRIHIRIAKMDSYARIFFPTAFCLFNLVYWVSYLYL
UniProt P31644, 32-462: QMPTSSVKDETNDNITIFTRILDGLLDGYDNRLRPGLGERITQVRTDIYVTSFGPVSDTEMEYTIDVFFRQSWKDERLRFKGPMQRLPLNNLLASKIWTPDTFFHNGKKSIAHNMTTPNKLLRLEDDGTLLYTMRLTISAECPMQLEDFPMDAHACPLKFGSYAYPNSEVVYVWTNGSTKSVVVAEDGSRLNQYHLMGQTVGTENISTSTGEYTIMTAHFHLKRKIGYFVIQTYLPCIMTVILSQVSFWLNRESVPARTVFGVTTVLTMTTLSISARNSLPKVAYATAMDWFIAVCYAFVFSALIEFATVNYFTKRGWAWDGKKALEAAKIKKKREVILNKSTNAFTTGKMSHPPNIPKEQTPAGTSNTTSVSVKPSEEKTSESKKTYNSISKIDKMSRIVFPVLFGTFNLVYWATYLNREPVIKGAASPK

Target: GABAA/α5 receptors (Homo sapiens, UniProt P18507+P31644)
Conditions: read-out: Ki GABAA/α5; Huang et al. 2000, WO 03/082832A2; cited from earlier work

Structure (SMILES): CN1C(=O)CN=C(c2ccccc2)c2cc(Cl)ccc21 [diazepam]
- Ki: < 25 nM
